Test system: HUVEC
Test: Direct binding of 125I-labeled plasminogen or angiostatin to endothelial cells, Scatchard analysis
Design: species or system human
Conditions: 125I-labeled ligand
Experimental: FIGS. 1A and 1B. Direct binding assay and Scatchard analysis of plasminogen and angiostatin with endothelial cells. HUVEC were plated at a density of 10,000 cells/well and incubated with increasing concentrations of ^125I-labeled-plasminogen or angiostatin. FIG. 1A. ^125I-labeled plasminogen binding was concentration-dependent and saturable with an apparent dissociation constant ([…]) of 158 nM and 870,000 sites/cell. FIG. 1B. […] Error bars represent standard deviation.
Binding Assays. Ligands were radioiodinated by using Iodobeads (Pierce), repurified on L-lysine-Sepharose, eluted with 100 mM ε-aminocaproic acid, and dialyzed in PBS, pH 7.0 before use in binding assays. HUVEC were plated at a density of 5,000 or 10,000 cells/well and incubated with increasing concentrations of ^125I-labeled ligand in media containing 1% BSA for 1 h at 4° C. in 96-well plates. Wells were washed, and remaining bound radioactivity was quantified by using an LKB 1272 γ-radiation counter. Nonspecific binding was measured in the presence of excess unlabeled ligand.

angiostatin
binding sites per cell: 38,000 sites/cell | binding sites per cell (listed as Angiostatin): approximately 38,000 sites/cell

— patent publication US20040022788A1, “Compositions and methods for promoting or inhibiting angiogenesis” (priority 1998, published 2004)
